Data from PubChem BioAssay AID2685 (National Center for Advancing Translational Sciences (NCATS), 2010).
The other results are listed elsewhere or left out. These are further read-outs of the screen, such as a control signal, another cell line or another target. No call is given for them. Compounds called inactive in the main read-out are mostly missing here. Words in brackets tell the shape of the fitted curve; partial curves, single points and poor fits give uncertain potencies.

Experiment: qHTS Assay for Lipid Storage Modulators in Drosophila S3 Cells;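 for cell number change: cells counted by Cell Tracker Red CMTPX staining in the red channel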
Details: BODIPY lipid droplet fluorescence, 18-24 h; for cell number change: measured here: cell count max response, cells fed with added oleic acid
Summary of the method: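 Laser-scanning cytometry quantifies lipid droplet accumulation (500–530 nm total intensity; droplet/cell object ratio) in oleic acid-fed (400 uM added) Drosophila S3 cells treated with a concentration series. 20 uM Triacsin C defined 100% inhibition.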

[1] = measured here: cell number channel AC50, cells fed with added oleic acid
[2] = measured here: lipid fluorescence (Fed channel) AC50, cells fed with added oleic acid

Structure (SMILES)	cell number change [%]	AC50 [1]	AC50 [2]
CCOC(=O)CNC(=O)C12CC3CC(C1)CC(c1ccc(C)cc1)(C3)C2	-10.2	0.00517 µM [falling, full curve, poor fit]	1.64 µM [falling, partial curve]
O=C(O)C1C2C=CC(O2)C1C(=O)NCc1ccc(Cl)cc1 (stereo not given)	-97.2	23.1 µM [falling, single point]	
Cc1cccc(/N=C/c2c(O)cc(C)oc2=O)n1	-150		
Cc1cc(F)ccc1S(=O)(=O)N1CCC2(CC1)OCCN2S(=O)(=O)c1cccs1	19.1		0.366 µM [rising, full curve]
Nc1ncc(Br)cc1S(=O)(=O)N1CCCCCC1			29.1 µM [rising, single point]
CCOC(=O)C1=C(CNCc2ccc(F)cc2)NC(=O)NC1c1cccc([N+](=O)[O-])c1 (stereo not given)	-11.4		
Cc1cc(NC(=O)COC(=O)CCS(=O)(=O)c2ccc(Cl)cc2)no1	11.5		6.51 µM [rising, partial curve, poor fit]
O=[N+]([O-])c1ccccc1S(=O)(=O)NCCSCc1ccco1	5.1		0.82 µM [falling, single point]
CCCOc1ccc2cc(-c3ccccn3)c(=O)oc2c1	38.1	5.17 µM [rising, partial curve]	5.8 µM [rising, partial curve]
Cn1ccnc1SCc1cn2ccccc2n1	4.8		
O=C(OCCN1CCOCC1)c1ccccc1	2.12		29.1 µM [rising, single point]
Cc1nc(Cl)sc1C(=O)O	27.5		1.84 µM [falling, single point]
CC(OC(=O)C1=COCCO1)C(=O)Nc1ncc(Cl)cc1Cl (stereo not given)			29.1 µM [rising, single point]
COc1cccc(C(=O)NN/C(C)=C/C(=O)C(F)(F)C(F)(F)C(F)(F)F)c1	-1.11		0.082 µM [falling, partial curve, poor fit]
COc1ccccc1CCC(=O)OCC(=O)Nc1c(Br)cc(C)cc1Br	12.8	4.11 µM [rising, single point]	
O=C(N/N=C/c1ccccn1)c1ccc(Cl)c(Cl)c1	5.22		17.8 µM [falling, partial curve]
Cc1ccc(S(=O)(=O)N2CCN(C(=O)Cc3ccccc3)CC2)cc1C	-3.29		0.00461 µM [rising, full curve, poor fit]
CCOC(=O)C1CCCN(C2CC(=O)N(c3cccc(C)c3)C2=O)C1 (stereo not given)	10.5		0.259 µM [falling, full curve, poor fit]
O=C(CN(CC1CCCO1)C(=O)CNS(=O)(=O)c1ccc(F)cc1)NCCc1ccccc1 (stereo not given)	6.41		29.1 µM [falling, single point]
COC(=O)[C@]1(C)CCC[C@@]2(C)C3CC[C@@]4(C)C[C@]3(CCC21)CC4=NO (stereo not given in full)	-55.4	5.17 µM [falling, single point]	
COc1cc2ccccc2cc1C(=O)Nc1ccc(NC(=O)c2cccs2)cc1	346		0.206 µM [rising, single point]

Structure (SMILES)	cell number change [%]	AC50 [1]	AC50 [2]
Cc1cc(C)c(S(=O)(=O)N2CCN(C)CC2)c(C)c1	8.86		0.82 µM [falling, partial curve, poor fit]
C/C(=N\NC(=O)C(c1ccccc1)c1ccccc1)c1ccc(O)cc1	8.78		0.82 µM [falling, single point]
Cc1cc(N2C(=O)C(=O)/C(=C(/O)c3ccc(F)cc3)C2c2ccc(F)cc2)no1 (stereo not given)	1.68		1.16 µM [falling, single point]
O=C(CSc1ncccn1)NCc1cccs1	-27.9		6.51 µM [falling, single point]
CSc1nsc(SCC(=O)Nc2ccc(Cl)c(C(=O)O)c2)n1			0.651 µM [falling, partial curve, poor fit]
Cc1ccc(C(=O)N/C(=C\c2ccco2)C(=O)N2CCCCC2)cc1	12.6		
COc1ccccc1NC(=O)C1CCCN(C(=O)NCc2ccccc2)C1 (stereo not given)	8.97		
COCCN=C1Sc2nc3cc4c(cc3cc2CN1CC1CCCO1)OCO4 (stereo not given)	8.71		
CCOC(=O)c1c(NC(=O)OC)sc2c1CCC2	-24.6		
CN(C)c1ccc(C(=O)NCc2ccc3c(c2)OCO3)cc1	25.9		6.51 µM [rising, single point]
COc1ccc(/C=C/C(=O)O)cc1S(=O)(=O)NCC1CCCO1 (stereo not given)	-12.6		0.00517 µM [falling, full curve]
CCOC(=O)c1sc2nc(C(C)C)c3c(c2c1N)CC(C)(C)OC3	-0.812		
Clc1ccc(Nc2ncnc3ccc(Br)cc23)cc1	-33.3	5.17 µM [falling, partial curve]	4.11 µM [falling, full curve]
CCCC(c1nnnn1CS(=O)(=O)c1ccc(C)cc1)N1CCN(C2CCCC2)CC1 (stereo not given)	-11.8		
CCN1CCN(CCC(=O)Nc2ccc(Br)cc2)CC1	-10.5		
CCOC(=O)Cc1csc(SCC(=O)NC2CCC(C)CC2)n1 (stereo not given)	-7.25		6.51 µM [falling, single point]
CCCn1c(SCC#N)nc2c(c1=O)C1(CCCC1)Cc1ccccc1-2	24.2	0.116 µM [rising, full curve, poor fit]	0.103 µM [rising, full curve, poor fit]
CC1CCc2[nH]c3ccc(C(=O)N(C)CC(=O)Nc4cccc(F)c4)cc3c2C1 (stereo not given)	35.3	3.26 µM [rising, full curve]	
CCN(C(=O)CSc1nc2ccccc2c(=O)n1-c1ccc(C)cc1)C1CCS(=O)(=O)C1 (stereo not given)	-82.9	29.1 µM [falling, single point]	
CCOC(=O)c1ccc(NC(=O)CSc2nnc(-c3cccs3)n2C)cc1	-3.58		11.6 µM [rising, single point]
O=C(CSc1n[nH]c(-c2ccccc2)n1)NC(=O)NCc1ccco1	66.1	6.51 µM [falling, single point]	

Just AC50 [1] and AC50 [2], for some of the entries so far:
Structure (SMILES) | AC50 [1] | AC50 [2]
O=C(OCCN1CCOCC1)c1ccccc1 |  | 29.1 µM [rising, single point]
COc1ccccc1CCC(=O)OCC(=O)Nc1c(Br)cc(C)cc1Br | 4.11 µM [rising, single point] | 
COc1ccc(/C=C/C(=O)O)cc1S(=O)(=O)NCC1CCCO1 (stereo not given) |  | 0.00517 µM [falling, full curve]
